Consider six molecules from article PMC7784283.

Amino acid sequences for entries named in this document (tags omitted). Residues count along the entry.
UniProt P16671: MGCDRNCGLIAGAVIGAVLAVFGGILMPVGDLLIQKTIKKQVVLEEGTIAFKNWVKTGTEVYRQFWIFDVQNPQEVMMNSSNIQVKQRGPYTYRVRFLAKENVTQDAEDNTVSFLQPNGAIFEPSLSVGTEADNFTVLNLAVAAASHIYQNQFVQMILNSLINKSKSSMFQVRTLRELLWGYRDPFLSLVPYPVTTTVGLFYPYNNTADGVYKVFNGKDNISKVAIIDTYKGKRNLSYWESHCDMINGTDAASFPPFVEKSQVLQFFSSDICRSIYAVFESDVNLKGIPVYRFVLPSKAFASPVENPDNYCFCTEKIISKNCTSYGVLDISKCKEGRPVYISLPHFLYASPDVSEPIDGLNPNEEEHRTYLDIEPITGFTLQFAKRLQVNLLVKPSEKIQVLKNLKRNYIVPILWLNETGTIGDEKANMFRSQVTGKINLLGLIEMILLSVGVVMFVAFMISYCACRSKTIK
UniProt Q08857: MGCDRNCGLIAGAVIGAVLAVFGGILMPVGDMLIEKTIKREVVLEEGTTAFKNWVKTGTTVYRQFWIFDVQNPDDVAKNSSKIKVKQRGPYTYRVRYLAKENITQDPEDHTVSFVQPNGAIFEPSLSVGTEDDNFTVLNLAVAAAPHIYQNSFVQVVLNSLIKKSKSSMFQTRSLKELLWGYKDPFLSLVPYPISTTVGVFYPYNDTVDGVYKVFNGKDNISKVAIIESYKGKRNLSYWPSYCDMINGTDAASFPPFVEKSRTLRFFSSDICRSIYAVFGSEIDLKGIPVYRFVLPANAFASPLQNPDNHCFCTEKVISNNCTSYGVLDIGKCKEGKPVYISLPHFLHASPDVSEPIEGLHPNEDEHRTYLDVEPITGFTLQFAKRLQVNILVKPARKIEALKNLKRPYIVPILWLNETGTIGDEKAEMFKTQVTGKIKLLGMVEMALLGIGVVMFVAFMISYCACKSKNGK
UniProt Q9Y336, residues 18-463: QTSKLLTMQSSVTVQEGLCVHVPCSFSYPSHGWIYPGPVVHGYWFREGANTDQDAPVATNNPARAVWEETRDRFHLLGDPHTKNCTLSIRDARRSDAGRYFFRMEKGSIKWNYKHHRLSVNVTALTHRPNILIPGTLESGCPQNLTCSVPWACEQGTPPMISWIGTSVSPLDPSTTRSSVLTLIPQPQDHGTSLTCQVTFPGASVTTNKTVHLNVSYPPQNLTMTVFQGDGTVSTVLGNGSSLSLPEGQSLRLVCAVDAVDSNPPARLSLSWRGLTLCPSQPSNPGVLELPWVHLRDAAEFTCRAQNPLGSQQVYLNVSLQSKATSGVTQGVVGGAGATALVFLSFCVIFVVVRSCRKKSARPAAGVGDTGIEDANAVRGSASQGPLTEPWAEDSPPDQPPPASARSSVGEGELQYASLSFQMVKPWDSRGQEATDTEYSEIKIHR
UniProt P29351: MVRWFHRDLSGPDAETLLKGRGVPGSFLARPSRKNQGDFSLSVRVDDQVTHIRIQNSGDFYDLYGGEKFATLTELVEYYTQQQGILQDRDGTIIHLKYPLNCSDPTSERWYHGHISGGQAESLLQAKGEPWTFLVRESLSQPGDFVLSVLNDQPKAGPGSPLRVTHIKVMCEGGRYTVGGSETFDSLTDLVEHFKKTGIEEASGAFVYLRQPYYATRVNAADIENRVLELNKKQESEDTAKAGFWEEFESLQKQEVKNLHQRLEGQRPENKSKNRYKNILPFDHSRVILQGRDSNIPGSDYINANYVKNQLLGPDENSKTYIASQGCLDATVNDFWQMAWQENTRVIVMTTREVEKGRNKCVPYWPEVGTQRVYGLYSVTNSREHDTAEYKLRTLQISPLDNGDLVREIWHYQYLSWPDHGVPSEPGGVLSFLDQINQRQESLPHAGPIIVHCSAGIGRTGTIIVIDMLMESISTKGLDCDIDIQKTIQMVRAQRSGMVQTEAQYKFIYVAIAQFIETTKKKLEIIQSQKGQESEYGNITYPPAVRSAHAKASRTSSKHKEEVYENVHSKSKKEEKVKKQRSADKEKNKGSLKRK

Assay [1] addresses T1, Siglec-E (endogenous, peritoneal macrophages) (mouse (endogenous in peritoneal macrophages)) (UniProt Q91Y57).
T1 sequence: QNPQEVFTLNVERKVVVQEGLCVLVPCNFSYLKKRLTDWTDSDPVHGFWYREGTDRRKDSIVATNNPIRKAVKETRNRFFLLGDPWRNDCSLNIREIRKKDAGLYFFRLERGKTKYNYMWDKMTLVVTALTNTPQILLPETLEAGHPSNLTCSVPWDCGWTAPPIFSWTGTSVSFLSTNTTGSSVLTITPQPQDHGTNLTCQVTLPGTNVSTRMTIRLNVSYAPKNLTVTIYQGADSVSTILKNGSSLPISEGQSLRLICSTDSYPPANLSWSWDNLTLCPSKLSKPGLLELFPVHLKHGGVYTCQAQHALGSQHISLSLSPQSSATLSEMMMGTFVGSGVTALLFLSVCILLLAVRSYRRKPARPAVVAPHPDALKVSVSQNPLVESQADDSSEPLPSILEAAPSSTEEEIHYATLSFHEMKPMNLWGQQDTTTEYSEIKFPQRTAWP
The assay is described as follows: co-IP; endogenous proteins; lysates of WT mouse peritoneal macrophages treated without or with sialidase 0.1 unit/ml for 30 min; precipitated with control IgG, anti-Siglec-E or anti-CD36 antibody, 18 h, 4 °C, protein A/G magnetic beads; blot.

The target of assay [2] is N-terminal HA-tagged human CD36 (HA-CD36) (human) (UniProt P16671). The assay is described as follows: co-IP; HEK293T cells co-transfected with Flag-Siglec-9 and HA-CD36 for 48 h, without or with sialidase for 30 min; lysate precipitated with anti-HA affinity resin; blot.
Assay [3] has as its target T1, Siglec-E (endogenous, peritoneal macrophages) (mouse (endogenous in peritoneal macrophages)). The assay is described as follows: co-IP; endogenous proteins; lysates of peritoneal macrophages (WT; for VAV also SE-/-) treated with oxLDL 50 µg/ml for indicated times; precipitated with anti-Siglec-E or anti-VAV antibody; blot and densitometry.
The target in assay [4] is N-terminal Flag tagged mouse CD36 (Flag-CD36) (mouse) (UniProt Q08857). The assay is described as follows: co-IP; HEK293T cells co-transfected with Flag-CD36 and WT or mutant HA-SE; lysate (1% Triton X-100, 0.1% SDS, 150 mM NaCl) precipitated with anti-FLAG M2 affinity resin, 2 h, 4 °C; blot; also after P-3FAX-Neu5Ac 200 µM for 66 h or sialidase 0.1 unit/ml for 30 min.
Assay [5] has as its target CD36 (endogenous, peritoneal macrophages) (mouse (endogenous in peritoneal macrophages)) (UniProt Q08857). The assay is described as follows: co-IP; endogenous proteins; lysates of WT mouse peritoneal macrophages treated without or with sialidase 0.1 unit/ml for 30 min; precipitated with control IgG, anti-Siglec-E or anti-CD36 antibody, 18 h, 4 °C, protein A/G magnetic beads; blot.

Residue numbers refer to the chain shown, from its start. Names may count otherwise. Results are given in words; binding and its absence hold for the method and conditions named. In cells and extracts the contact can be indirect. Some entries that bind do so weakly or less than the wild type. For part of these data: Sequences can lack the tags named with a protein.

As for “CD36 (endogenous, peritoneal macrophages) (from UniProt Q08857 1-472) (receptor)”, the binding result in assay [1] is “binds”.

In the case of “C-terminal Myc-Flag-tagged Siglec-9 (Flag-Siglec-9) (from UniProt Q9Y336 18-463) (receptor)”, in assay [2], the binding entry was “binds”.

In the case of “Src homology region 2 domain-containing phosphatase-1 (SHP-1) (from UniProt P29351 1-595) (enzyme)”, the binding result in assay [3] is given as “binds”.

B1: C-terminal HA-tagged wild type Siglec-E (HA-SE) (receptor, UniProt Q91Y57 19-467)
chain: T1 sequence
Take B1: in assay [4], the binding result was “binds”.

B2: sialic acid binding defective mutant of Siglec-E (Siglec-E R126D) with HA-tag (receptor, UniProt Q91Y57 19-467)
chain: T1 sequence with R108D
On to B2, for which, in assay [4], the binding entry is given as “binds”.

B3: Siglec-E (endogenous, peritoneal macrophages) (receptor, UniProt Q91Y57 19-467)
chain: T1 sequence
Turning to B3, the binding entry in assay [5] is “binds”.
